The exact form of at least one protein or probe is not confirmed. For some assays here: The comparison behind a weaker result is the experiment's own reference, which may not be listed here. For some assays here: At least one verdict was read from the data and is not stated in words by the source.
What was measured:
GST-E2F1 [1] = biological target: GST-E2F1 (UniProt Q01094); test: competition with a labelled probe; settings: 100-fold excess vs DHFR probe, very inefficient; 1.8 ug GST-E2F1 per reaction, 24 ng/ul ds mutant adenovirus E2 E2F-site oligo as nonspecific competitor; recombinant protein
GST-E2F1 [2] = biological target: GST-E2F1 (UniProt Q01094); test: EMSA; settings: positive control; 1.8 ug GST-E2F1 per reaction, 24 ng/ul ds mutant adenovirus E2 E2F-site oligo as nonspecific competitor; recombinant protein; label: 32P as probe, unlabeled as competitor

The chains behind the UniProt entries cited, without tags or fusion partners. Where a name states a change or a piece, a line headed by the entry shows the natural chain unless it says otherwise.
UniProt Q01094: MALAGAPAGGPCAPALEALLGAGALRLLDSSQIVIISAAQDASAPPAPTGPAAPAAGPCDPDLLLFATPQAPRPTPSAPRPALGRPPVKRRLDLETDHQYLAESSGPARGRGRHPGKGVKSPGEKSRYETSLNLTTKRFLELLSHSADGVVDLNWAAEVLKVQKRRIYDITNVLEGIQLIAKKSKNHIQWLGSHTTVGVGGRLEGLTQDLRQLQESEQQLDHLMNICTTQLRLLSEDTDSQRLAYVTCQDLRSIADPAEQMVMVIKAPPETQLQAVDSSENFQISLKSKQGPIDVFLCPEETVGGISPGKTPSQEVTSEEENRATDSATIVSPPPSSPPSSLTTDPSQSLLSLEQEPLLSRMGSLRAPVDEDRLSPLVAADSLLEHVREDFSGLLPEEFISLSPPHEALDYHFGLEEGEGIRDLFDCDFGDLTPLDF

Sequence | binding result (GST-E2F1 [1]) | binding result (GST-E2F1 [2])
CAGAAAATTCATAGCGCTGTGATTTTTAGATC (double strand) [TIMELESS E2F site] | binds more weakly | –
CTAGAGCAATTTCGCGCCAAACTTGGATC (double strand) [DHFR E2F site] | – | binds

— PMC2978110
